Measured values from article doi:10.1101/2020.12.31.424961.
Results are given in words; binding and its absence hold for the method and conditions named. Binding seen in cells or lysates may run through a third protein. These calls come from enrichment with a bait or labelling near it, and not all partners need be listed. For some assays here: Tags and fused reporters may be left off the sequences shown.

T1: HCoV-229E NSP1, SFB-tagged (HCoV-229E) (UniProt P0C6X1)
T1 sequence: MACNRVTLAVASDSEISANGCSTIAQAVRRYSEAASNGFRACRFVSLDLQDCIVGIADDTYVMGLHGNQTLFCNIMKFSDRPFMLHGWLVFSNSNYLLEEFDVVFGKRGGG

B1: THOC6 (protein, UniProt Q86W42 1-341)
chain: MERAVPLAVPLGQTEVFQALQRLHMTIFSQSVSPCGKFLAAGNNYGQIAIFSLSSALSSEAKEESKKPVVTFQAHDGPVYSMVSTDRHLLSAGDGEVKAWLWAEMLKKGCKELWRRQPPYRTSLEVPEINALLLVPKENSLILAGGDCQLHTMDLETGTFTRVLRGHTDYIHCLALRERSPEVLSGGEDGAVRLWDLRTAKEVQTIEVYKHEECSRPHNGRWIGCLATDSDWMVCGGGPALTLWHLRSSTPTTIFPIRAPQKHVTFYQDLILSAGQGRCVNQWQLSGELKAQVPGSSPGLLSLSLNQQPAAPECKVLTAAGNSCRVDVFTNLGYRAFSLSF
B2: POLA2 (protein, UniProt Q14181 1-598)
chain: MSASAQQLAEELQIFGLDCEEALIEKLVELCVQYGQNEEGMVGELIAFCTSTHKVGLTSEILNSFEHEFLSKRLSKARHSTCKDSGHAGARDIVSIQELIEVEEEEEILLNSYTTPSKGSQKRAISTPETPLTKRSVSTRSPHQLLSPSSFSPSATPSQKYNSRSNRGEVVTSFGLAQGVSWSGRGGAGNISLKVLGCPEALTGSYKSMFQKLPDIREVLTCKIEELGSELKEHYKIEAFTPLLAPAQEPVTLLGQIGCDSNGKLNNKSVILEGDREHSSGAQIPVDLSELKEYSLFPGQVVIMEGINTTGRKLVATKLYEGVPLPFYQPTEEDADFEQSMVLVACGPYTTSDSITYDPLLDLIAVINHDRPDVCILFGPFLDAKHEQVENCLLTSPFEDIFKQCLRTIIEGTRSSGSHLVFVPSLRDVHHEPVYPQPPFSYSDLSREDKKQVQFVSEPCSLSINGVIFGLTSTDLLFHLGAEEISSSSGTSDRFSRILKHILTQRSYYPLYPPQEDMAIDYESFYVYAQLPVTPDVLIIPSELRYFVKDVLGCVCVNPGRLTKGQVGGTFARLYLRRPAADGAERQSPCIAVQVVRI
B3: VPS41, P49754 1-854 (protein)
chain: MAEAEEQETGSLEESTDESEEEESEEEPKLKYERLSNGVTEILQKDAASCMTVHDKFLALGTHYGKVYLLDVQGNITQKFDVSPVKINQISLDESGEHMGVCSEDGKVQVFGLYSGEEFHETFDCPIKIIAVHPHFVRSSCKQFVTGGKKLLLFERSWMNRWKSAVLHEGEGNIRSVKWRGHLIAWANNMGVKIFDIISKQRITNVPRDDISLRPDMYPCSLCWKDNVTLIIGWGTSVKVCSVKERHASEMRDLPSRYVEIVSQFETEFYISGLAPLCDQLVVLSYVKEISEKTEREYCARPRLDIIQPLSETCEEISSDALTVRGFQENECRDYHLEYSEGESLFYIVSPRDVVVAKERDQDDHIDWLLEKKKYEEALMAAEISQKNIKRHKILDIGLAYINHLVERGDYDIAARKCQKILGKNAALWEYEVYKFKEIGQLKAISPYLPRGDPVLKPLIYEMILHEFLESDYEGFATLIREWPGDLYNNSVIVQAVRDHLKKDSQNKTLLKTLAELYTYDKNYGNALEIYLTLRHKDVFQLIHKHNLFSSIKDKIVLLMDFDSEKAVDMLLDNEDKISIKKVVEELEDRPELQHVYLHKLFKRDHHKGQRYHEKQISLYAEYDRPNLLPFLRDSTHCPLEKALEICQQRNFVEETVYLLSRMGNSRSALKMIMEELHDVDKAIEFAKEQDDGELWEDLILYSIDKPPFITGLLNNIGTHVDPILLIHRIKEGMEIPNLRDSLVKILQDYNLQILLREGCKKILVADSLSLLKKMHRTQMKGVLVDEENICESCLSPILPSDAAKPFSVVVFHCRHMFHKECLPMPSMNSAAQFCNICSAKNRGPGSAILEMKK
B4: PRIM2 (protein, UniProt P49643 1-509)
chain: MEFSGRKWRKLRLAGDQRNASYPHCLQFYLQPPSENISLIEFENLAIDRVKLLKSVENLGVSYVKGTEQYQSKLESELRKLKFSYRENLEDEYEPRRRDHISHFILRLAYCQSEELRRWFIQQEMDLLRFRFSILPKDKIQDFLKDSQLQFEAISDEEKTLREQEIVASSPSLSGLKLGFESIYKIPFADALDLFRGRKVYLEDGFAYVPLKDIVAIILNEFRAKLSKALALTARSLPAVQSDERLQPLLNHLSHSYTGQDYSTQGNVGKISLDQIDLLSTKSFPPCMRQLHKALRENHHLRHGGRMQYGLFLKGIGLTLEQALQFWKQEFIKGKMDPDKFDKGYSYNIRHSFGKEGKRTDYTPFSCLKIILSNPPSQGDYHGCPFRHSDPELLKQKLQSYKISPGGISQILDLVKGTHYQVACQKYFEMIHNVDDCGFSLNHPNQFFCESQRILNGGKDIKKEPIQPETPQPKPSVQKTKDASSALASLNSSLEMDMEGLEDYFSEDS
B5: THOC1 (protein, UniProt Q96FV9 1-657)
chain: MSPTPPLFSLPEARTRFTKSTREALNNKNIKPLLSTFSQVPGSENEKKCTLDQAFRGILEEEIINHSSCENVLAIISLAIGGVTEGICTASTPFVLLGDVLDCLPLDQCDTIFTFVEKNVATWKSNTFYSAGKNYLLRMCNDLLRRLSKSQNTVFCGRIQLFLARLFPLSEKSGLNLQSQFNLENVTVFNTNEQESTLGQKHTEDREEGMDVEEGEMGDEEAPTTCSIPIDYNLYRKFWSLQDYFRNPVQCYEKISWKTFLKYSEEVLAVFKSYKLDDTQASRKKMEELKTGGEHVYFAKFLTSEKLMDLQLSDSNFRRHILLQYLILFQYLKGQVKFKSSNYVLTDEQSLWIEDTTKSVYQLLSENPPDGERFSKMVEHILNTEENWNSWKNEGCPSFVKERTSDTKPTRIIRKRTAPEDFLGKGPTKKILMGNEELTRLWNLCPDNMEACKSETREHMPTLEEFFEEAIEQADPENMVENEYKAVNNSNYGWRALRLLARRSPHFFQPTNQQFKSLPEYLENMVIKLAKELPPPSEEIKTGEDEDEEDNDALLKENESPDVRRDKPVTGEQIEVFANKLGEQWKILAPYLEMKDSEIRQIECDSEDMKMRAKQLLVAWQDQEGVHATPENLINALNKSGLSDLAESLTNDNETNS
B6: ERCC5 (protein, UniProt P28715 1-1186)
chain: MGVQGLWKLLECSGRQVSPEALEGKILAVDISIWLNQALKGVRDRHGNSIENPHLLTLFHRLCKLLFFRIRPIFVFDGDAPLLKKQTLVKRRQRKDLASSDSRKTTEKLLKTFLKRQAIKTAFRSKRDEALPSLTQVRRENDLYVLPPLQEEEKHSSEEEDEKEWQERMNQKQALQEEFFHNPQAIDIESEDFSSLPPEVKHEILTDMKEFTKRRRTLFEAMPEESDDFSQYQLKGLLKKNYLNQHIEHVQKEMNQQHSGHIRRQYEDEGGFLKEVESRRVVSEDTSHYILIKGIQAKTVAEVDSESLPSSSKMHGMSFDVKSSPCEKLKTEKEPDATPPSPRTLLAMQAALLGSSSEEELESENRRQARGRNAPAAVDEGSISPRTLSAIKRALDDDEDVKVCAGDDVQTGGPGAEEMRINSSTENSDEGLKVRDGKGIPFTATLASSSVNSAEEHVASTNEGREPTDSVPKEQMSLVHVGTEAFPISDESMIKDRKDRLPLESAVVRHSDAPGLPNGRELTPASPTCTNSVSKNETHAEVLEQQNELCPYESKFDSSLLSSDDETKCKPNSASEVIGPVSLQETSSIVSVPSEAVDNVENVVSFNAKEHENFLETIQEQQTTESAGQDLISIPKAVEPMEIDSEESESDGSFIEVQSVISDEELQAEFPETSKPPSEQGEEELVGTREGEAPAESESLLRDNSERDDVDGEPQEAEKDAEDSLHEWQDINLEELETLESNLLAQQNSLKAQKQQQERIAATVTGQMFLESQELLRLFGIPYIQAPMEAEAQCAILDLTDQTSGTITDDSDIWLFGARHVYRNFFNKNKFVEYYQYVDFHNQLGLDRNKLINLAYLLGSDYTEGIPTVGCVTAMEILNEFPGHGLEPLLKFSEWWHEAQKNPKIRPNPHDTKVKKKLRTLQLTPGFPNPAVAEAYLKPVVDDSKGSFLWGKPDLDKIREFCQRYFGWNRTKTDESLFPVLKQLDAQQTQLRIDSFFRLAQQEKEDAKRIKSQRLNRAVTCMLRKEKEAAASEIEAVSVAMEKEFELLDKAKGKTQKRGITNTLEESSSLKRKRLSDSKGKNTCGGFLGETCLSESSDGSSSEDAESSSLMNVQRRTAAKEPKTSASDSQNSVKEAPVKNGGATTSSSSDSDDDGGKEKMVLVTARSVFGKKRRKLRRARGRKRKT
B7: DVL1 (protein, UniProt O14640 1-695)
chain: MAETKIIYHMDEEETPYLVKLPVAPERVTLADFKNVLSNRPVHAYKFFFKSMDQDFGVVKEEIFDDNAKLPCFNGRVVSWLVLAEGAHSDAGSQGTDSHTDLPPPLERTGGIGDSRPPSFHPNVASSRDGMDNETGTESMVSHRRERARRRNREEAARTNGHPRGDRRRDVGLPPDSASTALSSELESSSFVDSDEDGSTSRLSSSTEQSTSSRLIRKHKRRRRKQRLRQADRASSFSSITDSTMSLNIVTVTLNMERHHFLGISIVGQSNDRGDGGIYIGSIMKGGAVAADGRIEPGDMLLQVNDVNFENMSNDDAVRVLREIVSQTGPISLTVAKCWDPTPRSYFTVPRADPVRPIDPAAWLSHTAALTGALPRYGTSPCSSAVTRTSSSSLTSSVPGAPQLEEAPLTVKSDMSAVVRVMQLPDSGLEIRDRMWLKITIANAVIGADVVDWLYTHVEGFKERREARKYASSLLKHGFLRHTVNKITFSEQCYYVFGDLCSNLATLNLNSGSSGTSDQDTLAPLPHPAAPWPLGQGYPYQYPGPPPCFPPAYQDPGFSYGSGSTGSQQSEGSKSSGSTRSSRRAPGREKERRAAGAGGSGSESDHTAPSGVGSSWRERPAGQLSRGSSPRSQASATAPGLPPPHPTTKAYTVVGGPPGGPPVRELAAVPPELTGSRQSFQKAMGNPCEFFVDIM
B8: PRIM1 (protein, UniProt P49642 1-420)
chain: METFDPTELPELLKLYYRRLFPYSQYYRWLNYGGVIKNYFQHREFSFTLKDDIYIRYQSFNNQSDLEKEMQKMNPYKIDIGAVYSHRPNQHNTVKLGAFQAQEKELVFDIDMTDYDDVRRCCSSADICPKCWTLMTMAIRIIDRALKEDFGFKHRLWVYSGRRGVHCWVCDESVRKLSSAVRSGIVEYLSLVKGGQDVKKKVHLSEKIHPFIRKSINIIKKYFEEYALVNQDILENKESWDKILALVPETIHDELQQSFQKSHNSLQRWEHLKKVASRYQNNIKNDKYGPWLEWEIMLQYCFPRLDINVSKGINHLLKSPFSVHPKTGRISVPIDLQKVDQFDPFTVPTISFICRELDAISTNEEEKEENEAESDVKHRTRDYKKTSLAPYVKVFEHFLENLDKSRKGELLKKSDLQKDF

Assays:
[1] = target: SARS-CoV-2 NSP7, SFB- or BioID2-tagged (SARS-CoV-2) (UniProt P0DTD1); assay: affinity purification with mass spectrometry + proximity labelling
[2] = target: SARS-CoV-1 NSP1, SFB- or BioID2-tagged (SARS-CoV-1) (UniProt P0C6X7); assay: as above
[3] = target: SARS-CoV-2 NSP1, SFB- or BioID2-tagged (SARS-CoV-2) (UniProt P0DTD1); assay: as above
[4] = target: SARS-CoV-2 ORF3a, SFB- or BioID2-tagged (SARS-CoV-2), P0DTC3; assay: as above; conditions: remark: other sources report otherwise
[5] = target: T1, HCoV-229E NSP1, SFB-tagged (HCoV-229E); assay: affinity purification with mass spectrometry

| Binder | binding [1] | binding [2] | binding [3] | other results |
| --- | --- | --- | --- | --- |
| B1 | binds |  |  |  |
| B2 |  | binds | binds |  |
| B3 |  |  |  | binding [4]: binds |
| B4 |  | binds | binds |  |
| B5 | binds |  |  |  |
| B6 |  |  |  | binding [5]: binds |
| B7 | binds |  |  |  |
| B8 |  | binds | binds |  |
